In PMC9788671 one finds binding data, which are given here for six substances.

By UniProt entry, the sequences of proteins in these tests, tags left out.
UniProt Q9NZV8: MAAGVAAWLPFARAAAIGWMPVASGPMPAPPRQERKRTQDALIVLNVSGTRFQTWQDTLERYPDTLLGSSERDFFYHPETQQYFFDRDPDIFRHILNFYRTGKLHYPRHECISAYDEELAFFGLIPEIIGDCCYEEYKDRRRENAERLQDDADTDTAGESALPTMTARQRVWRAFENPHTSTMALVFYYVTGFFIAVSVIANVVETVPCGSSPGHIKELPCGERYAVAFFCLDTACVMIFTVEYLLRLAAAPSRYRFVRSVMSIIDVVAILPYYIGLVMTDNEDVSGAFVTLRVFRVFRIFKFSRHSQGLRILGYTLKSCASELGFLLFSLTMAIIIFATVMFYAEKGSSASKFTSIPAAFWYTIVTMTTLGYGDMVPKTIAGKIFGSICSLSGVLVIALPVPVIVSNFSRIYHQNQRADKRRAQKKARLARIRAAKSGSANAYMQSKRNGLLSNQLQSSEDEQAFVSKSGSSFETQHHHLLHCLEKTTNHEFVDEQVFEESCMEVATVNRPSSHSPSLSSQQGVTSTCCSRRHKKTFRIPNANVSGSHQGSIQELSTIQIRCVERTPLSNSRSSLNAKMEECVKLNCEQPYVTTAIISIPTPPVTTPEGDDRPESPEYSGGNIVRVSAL
UniProt Q64568: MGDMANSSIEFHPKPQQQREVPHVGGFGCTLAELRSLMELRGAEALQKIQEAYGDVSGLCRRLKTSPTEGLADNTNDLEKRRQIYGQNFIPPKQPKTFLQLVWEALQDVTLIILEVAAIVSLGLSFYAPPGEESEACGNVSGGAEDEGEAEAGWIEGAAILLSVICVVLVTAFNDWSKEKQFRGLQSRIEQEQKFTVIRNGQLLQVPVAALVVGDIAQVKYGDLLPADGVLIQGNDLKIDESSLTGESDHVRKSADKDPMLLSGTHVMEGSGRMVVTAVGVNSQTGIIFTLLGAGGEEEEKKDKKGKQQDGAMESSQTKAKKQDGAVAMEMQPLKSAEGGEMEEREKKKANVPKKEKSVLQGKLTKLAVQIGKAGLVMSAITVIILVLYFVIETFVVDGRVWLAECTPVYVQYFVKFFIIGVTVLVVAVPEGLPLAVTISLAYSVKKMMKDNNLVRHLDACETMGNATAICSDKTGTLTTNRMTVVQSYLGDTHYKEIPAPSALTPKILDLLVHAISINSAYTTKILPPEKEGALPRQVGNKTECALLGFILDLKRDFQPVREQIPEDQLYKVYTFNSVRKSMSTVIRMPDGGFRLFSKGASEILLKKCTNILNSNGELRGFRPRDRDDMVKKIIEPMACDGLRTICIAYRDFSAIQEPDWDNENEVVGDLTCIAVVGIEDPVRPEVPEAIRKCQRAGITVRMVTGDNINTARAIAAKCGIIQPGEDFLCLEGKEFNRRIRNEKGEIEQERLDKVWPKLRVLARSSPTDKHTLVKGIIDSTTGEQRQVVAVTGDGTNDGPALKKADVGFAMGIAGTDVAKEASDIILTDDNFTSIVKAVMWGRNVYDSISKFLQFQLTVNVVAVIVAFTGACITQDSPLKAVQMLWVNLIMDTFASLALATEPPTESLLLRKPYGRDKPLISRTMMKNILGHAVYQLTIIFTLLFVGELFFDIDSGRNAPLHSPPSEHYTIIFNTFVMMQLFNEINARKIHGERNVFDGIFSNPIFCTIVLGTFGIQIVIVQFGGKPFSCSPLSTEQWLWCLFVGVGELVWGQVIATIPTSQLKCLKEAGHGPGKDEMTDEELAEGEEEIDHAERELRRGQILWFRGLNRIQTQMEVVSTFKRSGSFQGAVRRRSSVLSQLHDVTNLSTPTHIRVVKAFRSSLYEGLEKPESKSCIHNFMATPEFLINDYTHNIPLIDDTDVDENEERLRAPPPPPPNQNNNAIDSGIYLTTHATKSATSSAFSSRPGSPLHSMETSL
UniProt Q4QRB4: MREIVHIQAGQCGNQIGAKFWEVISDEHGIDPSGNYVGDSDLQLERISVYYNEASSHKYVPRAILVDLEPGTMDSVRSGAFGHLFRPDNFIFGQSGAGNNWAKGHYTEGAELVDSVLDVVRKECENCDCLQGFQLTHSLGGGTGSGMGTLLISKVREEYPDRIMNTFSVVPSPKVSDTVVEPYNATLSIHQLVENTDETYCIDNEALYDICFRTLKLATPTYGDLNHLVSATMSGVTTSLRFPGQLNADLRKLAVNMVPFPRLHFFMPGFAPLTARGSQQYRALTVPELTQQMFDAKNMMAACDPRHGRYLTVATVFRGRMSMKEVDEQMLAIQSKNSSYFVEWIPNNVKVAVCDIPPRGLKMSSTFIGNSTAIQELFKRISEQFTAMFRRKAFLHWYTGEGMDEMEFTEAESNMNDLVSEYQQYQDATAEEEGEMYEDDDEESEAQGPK
UniProt P29476: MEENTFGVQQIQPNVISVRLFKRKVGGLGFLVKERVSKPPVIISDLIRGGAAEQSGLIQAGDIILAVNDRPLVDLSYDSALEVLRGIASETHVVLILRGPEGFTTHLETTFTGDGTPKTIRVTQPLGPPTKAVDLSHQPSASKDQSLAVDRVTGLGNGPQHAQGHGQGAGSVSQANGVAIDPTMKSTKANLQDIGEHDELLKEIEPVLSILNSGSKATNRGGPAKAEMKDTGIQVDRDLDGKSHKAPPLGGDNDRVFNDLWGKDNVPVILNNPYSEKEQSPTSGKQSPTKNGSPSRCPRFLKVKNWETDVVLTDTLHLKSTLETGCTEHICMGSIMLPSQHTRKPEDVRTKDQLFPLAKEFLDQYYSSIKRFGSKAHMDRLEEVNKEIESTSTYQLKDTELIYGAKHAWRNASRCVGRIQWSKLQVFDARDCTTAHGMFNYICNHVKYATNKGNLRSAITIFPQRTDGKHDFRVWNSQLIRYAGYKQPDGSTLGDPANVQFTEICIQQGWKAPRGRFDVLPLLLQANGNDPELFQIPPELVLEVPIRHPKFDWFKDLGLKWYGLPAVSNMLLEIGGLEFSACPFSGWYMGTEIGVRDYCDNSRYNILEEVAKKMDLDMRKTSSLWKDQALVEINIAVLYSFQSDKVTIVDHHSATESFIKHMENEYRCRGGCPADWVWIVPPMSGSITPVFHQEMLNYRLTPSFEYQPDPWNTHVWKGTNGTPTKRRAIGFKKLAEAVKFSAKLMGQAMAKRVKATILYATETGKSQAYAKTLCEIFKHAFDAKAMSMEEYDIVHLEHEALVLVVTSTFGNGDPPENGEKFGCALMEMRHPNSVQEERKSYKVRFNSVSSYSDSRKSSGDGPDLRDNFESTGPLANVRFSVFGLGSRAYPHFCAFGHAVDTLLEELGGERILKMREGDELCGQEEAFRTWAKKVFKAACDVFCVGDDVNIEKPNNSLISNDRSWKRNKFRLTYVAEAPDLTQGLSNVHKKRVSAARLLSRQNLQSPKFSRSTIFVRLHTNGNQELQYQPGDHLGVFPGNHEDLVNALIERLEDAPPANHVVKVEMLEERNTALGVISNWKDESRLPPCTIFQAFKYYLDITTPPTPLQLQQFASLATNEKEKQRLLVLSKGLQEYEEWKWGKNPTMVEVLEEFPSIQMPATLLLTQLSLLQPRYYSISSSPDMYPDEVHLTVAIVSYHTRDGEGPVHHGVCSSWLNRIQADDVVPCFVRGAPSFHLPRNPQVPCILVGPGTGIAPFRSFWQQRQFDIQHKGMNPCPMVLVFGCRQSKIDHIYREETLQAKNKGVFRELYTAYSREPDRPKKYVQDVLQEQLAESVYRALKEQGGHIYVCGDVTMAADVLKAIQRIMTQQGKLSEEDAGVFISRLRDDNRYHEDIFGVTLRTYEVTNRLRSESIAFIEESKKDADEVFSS

No constants are given. Whether binding was seen depends on the method and setting. Binding seen in cells or lysates may run through a third protein. A yes stands for co-enrichment or nearness to the bait. Other partners may have been found.

The target of experiment [1] is TAP-Kv4.2 (human) (UniProt Q9NZV8). The experiment is described as follows: affinity purification with mass spectrometry; TAP-Kv4.2 expressed by lentivirus in rat hippocampal neurons, harvested at DIV14; weak lysis buffer of the kit (0.1% NP-40); streptavidin resin, then calmodulin resin; gel cut into high and low molecular weight fragments; no MS of the control sample.

The target is the same in experiment [2]. As to the kind of experiment: affinity purification with mass spectrometry; TAP-Kv4.2 expressed by lentivirus in rat hippocampal neurons, harvested at DIV14; strong lysis buffer (1% Triton X-100, 0.5% deoxycholate in PBS, pH 7.4); streptavidin resin, then calmodulin resin; gel cut into high and low molecular weight fragments; no MS of the control sample.

As for Atp2b3 (from UniProt Q64568 1-1258), the binding entry with TAP-Kv4.2 (human) [1] and in the experiment with TAP-Kv4.2 (human) [2] was “binds” in each case.

For the substance Tubb3 (from UniProt Q4QRB4 1-450), the binding result with TAP-Kv4.2 (human) [1] and with TAP-Kv4.2 (human) [2] was “binds” in each case.

For the substance Unc13a (from UniProt Q62768 1-1735), the binding entry in the experiment with TAP-Kv4.2 (human) [1] and in the experiment with TAP-Kv4.2 (human) [2] was “binds” throughout.

For the substance Cav2.3 (from UniProt Q07652 1-2222), the binding result with TAP-Kv4.2 (human) [1] and with TAP-Kv4.2 (human) [2] was “binds” in each case.

For the substance Map1b (from UniProt P15205 1-2461), the binding entry in the experiment with TAP-Kv4.2 (human) [1] and with TAP-Kv4.2 (human) [2] was “binds” throughout.

On to Nos1 (from UniProt P29476 1-1429), for which the binding entry with TAP-Kv4.2 (human) [1] and with TAP-Kv4.2 (human) [2] was “binds” each time.
